{"source": "PubChem BioAssay AID686938 (Drosophila RNAi Screening Center, 2013)", "aim": "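Knock-downs reducing store-operated calcium influx in Drosophila cells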 (primary screen)", "cell system": "Drosophila S2R+ cells", "reagents": "long dsRNA against Drosophila genes, about 0.25 µg dsRNA per well, roughly 10,000 cells", "timing": "5 days of knock-down before the calcium assay", "treatment": "thapsigargin (SERCA pump blocker) to empty calcium stores; entry signal taken 4 min after adding it", "detection": "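Duplicate raw fluo-4 intensities per well from a plate reader, at rest and four minutes after thapsigargin emptied calcium stores; entry-to-rest ratio filled for only some wells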", "direction": "calcium entry signal: higher = stronger calcium signal after store depletion; resting calcium signal: higher = higher resting calcium signal", "units": "calcium entry signal in fluorescence units; resting calcium signal in fluorescence units", "hit rule": "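Called when the plate z-score of the entry-to-rest ratio, mean of duplicates, falls below −3; wells with low overall dye signal (Fmax z below −2) or more than five off-targets excluded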", "calls": "active = strongly reduced calcium entry; inactive = no strong reduction", "note": "The screen tested about 23,000 reagents; this is an unselected part of those with a known target gene and a result. Of all reagents, 75 (0.33%) were called active. 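Raw plate signals without normalisation; calls rest on plate z-scores that were not deposited; ratio present for only 364 wells.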 A plus sign joins genes that one reagent is predicted to hit. Not given: the dose of the treatment."}
The first 2 entries, to show the layout:
{"Target gene":"CG43673 + CG43672","amplicon":"DRSC19452","calcium entry signal, replicate 1":4.01e7,"calcium entry signal, replicate 2":3.50e7,"resting calcium signal, replicate 1":2.03e7,"resting calcium signal, replicate 2":1.74e7,"activity call":"inactive"}
{"Target gene":"CG43673 + CG43672","amplicon":"DRSC20108","calcium entry signal, replicate 1":3.53e7,"calcium entry signal, replicate 2":3.50e7,"resting calcium signal, replicate 1":1.88e7,"resting calcium signal, replicate 2":1.64e7,"activity call":"inactive"}

The list itself, from the start:
{"Target gene":"CG43673 + CG43672","amplicon":"DRSC19452","calcium entry signal, replicate 1":4.01e7,"calcium entry signal, replicate 2":3.50e7,"resting calcium signal, replicate 1":2.03e7,"resting calcium signal, replicate 2":1.74e7,"activity call":"inactive"}
{"Target gene":"CG43673 + CG43672","amplicon":"DRSC20108","calcium entry signal, replicate 1":3.53e7,"calcium entry signal, replicate 2":3.50e7,"resting calcium signal, replicate 1":1.88e7,"resting calcium signal, replicate 2":1.64e7,"activity call":"inactive"}
{"Target gene":"Kdm3 (GeneID 41143)","amplicon":"DRSC16393","calcium entry signal, replicate 1":2.64e7,"calcium entry signal, replicate 2":2.80e7,"resting calcium signal, replicate 1":1.49e7,"resting calcium signal, replicate 2":1.60e7,"activity call":"inactive"}
{"Target gene":"CG5815 (GeneID 43266)","amplicon":"DRSC14135","calcium entry signal, replicate 1":3.78e7,"calcium entry signal, replicate 2":5.60e7,"resting calcium signal, replicate 1":1.99e7,"resting calcium signal, replicate 2":2.43e7,"activity call":"inactive"}
{"Target gene":"DCTN3-p24 (GeneID 46074)","amplicon":"DRSC04592","calcium entry signal, replicate 1":3.46e7,"resting calcium signal, replicate 1":1.86e7,"activity call":"inactive"}
{"Target gene":"CG8476 (GeneID 41624)","amplicon":"DRSC16426","calcium entry signal, replicate 1":2.37e7,"calcium entry signal, replicate 2":4.78e7,"resting calcium signal, replicate 1":1.26e7,"resting calcium signal, replicate 2":2.43e7,"activity call":"inactive"}
{"Target gene":"Neurl4 (GeneID 39558)","amplicon":"DRSC10638","calcium entry signal, replicate 1":2.28e7,"calcium entry signal, replicate 2":3.19e7,"resting calcium signal, replicate 1":1.15e7,"resting calcium signal, replicate 2":2.15e7,"activity call":"inactive"}
{"Target gene":"TM9SF4 (GeneID 34778)","amplicon":"DRSC01888","calcium entry signal, replicate 1":3.82e7,"resting calcium signal, replicate 1":1.83e7,"activity call":"inactive"}
{"Target gene":"CG31997 (GeneID 319064)","amplicon":"DRSC17105","calcium entry signal, replicate 1":4.29e7,"calcium entry signal, replicate 2":3.28e7,"resting calcium signal, replicate 1":2.03e7,"resting calcium signal, replicate 2":1.40e7,"activity call":"inactive"}
{"Target gene":"Fum4 (GeneID 318995)","amplicon":"DRSC22577","calcium entry signal, replicate 1":2.82e7,"calcium entry signal, replicate 2":3.06e7,"resting calcium signal, replicate 1":1.47e7,"resting calcium signal, replicate 2":1.43e7,"activity call":"inactive"}
{"Target gene":"CG14245 (GeneID 3772449)","amplicon":"DRSC14740","calcium entry signal, replicate 1":2.42e7,"calcium entry signal, replicate 2":3.62e7,"resting calcium signal, replicate 1":1.28e7,"resting calcium signal, replicate 2":1.59e7,"activity call":"inactive"}
{"Target gene":"CG32457 (GeneID 318040)","amplicon":"DRSC11596","calcium entry signal, replicate 1":3.87e7,"calcium entry signal, replicate 2":5.45e7,"resting calcium signal, replicate 1":1.88e7,"resting calcium signal, replicate 2":2.65e7,"activity call":"inactive"}
{"Target gene":"CG32457 (GeneID 318040)","amplicon":"DRSC21722","calcium entry signal, replicate 1":2.31e7,"calcium entry signal, replicate 2":3.62e7,"resting calcium signal, replicate 1":1.18e7,"resting calcium signal, replicate 2":1.59e7,"activity call":"inactive"}
